Data taken from patent US20180021773A1, “ASSAY DEVICES, METHODS FOR CARRYING OUT ASSAYS, ASSAY KITS AND METHOD FOR MANUFACTURING ASSAY DEVICES” (Loughborough University, priority 2014, published 2018).
At least one structure is not confirmed: it was looked up by name or label, or the drawing left a doubt.

The chains behind the UniProt entries cited, without tags or fusion partners. Residues count along the entry.
UniProt P00722, 2-1024: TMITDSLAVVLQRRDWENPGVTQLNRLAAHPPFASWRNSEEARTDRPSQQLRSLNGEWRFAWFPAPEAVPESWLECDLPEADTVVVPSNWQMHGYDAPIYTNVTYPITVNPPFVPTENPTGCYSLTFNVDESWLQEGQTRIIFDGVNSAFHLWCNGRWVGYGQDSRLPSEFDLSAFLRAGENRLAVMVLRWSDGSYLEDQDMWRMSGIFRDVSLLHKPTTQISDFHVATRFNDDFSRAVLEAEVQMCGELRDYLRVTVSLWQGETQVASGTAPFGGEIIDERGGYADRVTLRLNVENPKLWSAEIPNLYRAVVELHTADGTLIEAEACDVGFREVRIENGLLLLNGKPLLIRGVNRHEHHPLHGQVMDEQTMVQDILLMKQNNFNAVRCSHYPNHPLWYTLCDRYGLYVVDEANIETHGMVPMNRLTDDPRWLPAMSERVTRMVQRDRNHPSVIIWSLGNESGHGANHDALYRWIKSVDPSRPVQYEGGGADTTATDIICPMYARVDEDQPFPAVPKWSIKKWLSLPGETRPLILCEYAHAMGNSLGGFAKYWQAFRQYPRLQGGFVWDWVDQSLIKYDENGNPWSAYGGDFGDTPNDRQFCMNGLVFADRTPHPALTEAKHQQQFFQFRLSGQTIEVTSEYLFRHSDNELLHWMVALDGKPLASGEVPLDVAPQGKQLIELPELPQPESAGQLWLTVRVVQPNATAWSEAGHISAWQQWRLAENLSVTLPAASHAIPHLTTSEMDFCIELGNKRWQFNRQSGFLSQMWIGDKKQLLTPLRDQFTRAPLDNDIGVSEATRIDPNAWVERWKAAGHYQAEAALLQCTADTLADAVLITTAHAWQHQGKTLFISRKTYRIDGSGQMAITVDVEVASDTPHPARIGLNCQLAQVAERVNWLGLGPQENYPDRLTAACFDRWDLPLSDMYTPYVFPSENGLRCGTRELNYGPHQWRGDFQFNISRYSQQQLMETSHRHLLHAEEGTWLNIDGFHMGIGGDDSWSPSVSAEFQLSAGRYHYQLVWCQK

How the values were obtained:
β-galactosidase enzyme = β-galactosidase enzyme (Escherichia coli, UniProt P00722); experiment: ONPG loaded test strips dipped into enzyme solution, yellow colour; format: biochemical; details: sample (3) beta-galactosidase solution 0.1 U/μl
[1] = system: Salmonella typhimurium (strain SL3261); experiment: ONPG loaded test strips dipped into bacterial culture, yellow colour; format: cell-based
Method: A 10 bore FEP microcapillary film was internally coated with cross-linked PVA. Test microcapillary film was prepared by first loading the capillaries with ONPG by filling the capillaries with a 150 mg·mL^−1 ONPG substrate solution in DMF and incubating for 5 minutes. The substrate solution was then removed and the microcapillary film air dried using a syringe to pass air repeatedly through the capillaries. Seven test strips were cut from this ONPG loaded microcapillary film and dipped into one of 7 different aqueous samples. These comprised water (1); sterile Luria-Bertani lysogeny broth (LB) media (2); a 0.1 U/μl solution of β-galactosidase enzyme (3); an overnight culture of E. coli (ATCC accession number: 25922) suspended in LB (4); an overnight culture of Salmonella typhimurium (strain SL3261) suspended in LB (5); an overnight culture of E. coli suspended in a phosphate buffer saline PBS (6); an overnight culture of S. typhimurium suspended in PBS (7). Negative control test strips consisting of PVA coated cross-linked PVA but not loaded with ONPG were dipped into the same samples (referred hereafter as no substrate). As a comparison, similar assays were also performed in 96 well-plates with ONPG substrate solution (final concentration 1 mg·ml^−1) added to the different samples in a final volume of 100 μl.
When the ONPG loaded cross-linked PVA coated MCF test strips were used, a similar pattern of yellow colour production was observed. When dipped into samples, test strips rapidly sucked up aqueous samples into all capillaries, as expected. After 5 minutes incubation, strips dipped into sample (3) turned yellow, indicating a rapid reaction between ONPG and the positive control beta-galactosidase enzyme solution. In contrast, no other test strip changed colour, indicating as expected that neither LB broth, nor bacterial suspensions, contained beta-galactosidase enzyme. However, test strips dipped into overnight cultures of E. coli (suspensions (4) and (6)), turned dark yellow, indicating the presence of beta-galactosidase enzyme.
Overnight cultures of E. coli and S. typhimurium were diluted 1:100 in LB broth with the inclusion of the beta-galactosidase inducer IPTG (final concentration 1 mM) for 3 hours, and then tested using OPNG loaded FEP microcapillary test strips coated with cross-linked PVA.
As above, test strips were loaded with ONPG and tested by dipping into samples of either no bacteria, IPTG-cultured E. coli, or IPTG-cultured S. typhimurium. The colour of the ONPG-loaded test strips dipped into these three samples was examined after 1 hour incubation at 37 degrees C.

Measured: yellow colour, ONPG loaded capillaries

O=[N+]([O-])c1ccccc1O[C@@H]1O[C@H](CO)[C@H](O)[C@H](O)[C@H]1O [ONPG, ortho-nitrophenyl-β-galactoside]
−: [1]; sample (5) S. typhimurium in LB broth, 5 min | [1]; sample (5) S. typhimurium in LB broth, Overnight | [1]; sample (7) S. typhimurium in PBS, 5 min | [1]; sample (7) S. typhimurium in PBS, Overnight
+: β-galactosidase enzyme; 5 min, + yellow | β-galactosidase enzyme; Overnight
